Results from the supplement of paper PMC10849652.
The list shows a part of the results. Residues, ends and D or L forms follow the SMILES beside them. *: point of attachment. Cbz = O=C(OCc1ccccc1)*

Amino acid sequences for entries named in this document (tags omitted). A change or cut given only in a name is not applied to a line headed by its entry.
UniProt Q86Y79: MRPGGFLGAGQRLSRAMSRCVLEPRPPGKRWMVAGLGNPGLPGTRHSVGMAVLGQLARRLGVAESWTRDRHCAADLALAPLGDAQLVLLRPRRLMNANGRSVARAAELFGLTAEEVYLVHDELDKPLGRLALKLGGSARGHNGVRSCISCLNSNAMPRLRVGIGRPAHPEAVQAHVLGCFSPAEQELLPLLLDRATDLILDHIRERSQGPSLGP
UniProt O75365, whole entry, looked up: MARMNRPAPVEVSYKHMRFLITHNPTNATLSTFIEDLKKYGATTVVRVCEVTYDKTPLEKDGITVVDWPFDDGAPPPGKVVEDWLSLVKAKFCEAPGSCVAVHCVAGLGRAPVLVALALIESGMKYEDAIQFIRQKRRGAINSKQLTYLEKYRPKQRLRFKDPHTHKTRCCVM
UniProt Q9UKA9: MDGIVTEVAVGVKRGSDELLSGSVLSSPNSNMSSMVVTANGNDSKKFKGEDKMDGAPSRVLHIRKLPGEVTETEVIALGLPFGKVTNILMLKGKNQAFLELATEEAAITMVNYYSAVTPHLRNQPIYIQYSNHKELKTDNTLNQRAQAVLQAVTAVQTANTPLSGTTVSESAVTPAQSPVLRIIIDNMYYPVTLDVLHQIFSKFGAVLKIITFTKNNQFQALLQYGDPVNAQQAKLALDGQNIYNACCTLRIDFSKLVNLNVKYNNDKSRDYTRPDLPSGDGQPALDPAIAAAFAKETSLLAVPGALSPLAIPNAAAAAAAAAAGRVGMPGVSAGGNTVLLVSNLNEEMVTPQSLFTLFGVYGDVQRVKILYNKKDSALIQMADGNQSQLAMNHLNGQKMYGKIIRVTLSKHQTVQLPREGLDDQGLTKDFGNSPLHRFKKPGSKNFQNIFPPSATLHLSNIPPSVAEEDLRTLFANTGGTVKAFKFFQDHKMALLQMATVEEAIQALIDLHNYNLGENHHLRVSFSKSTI
UniProt Q7Z5L2: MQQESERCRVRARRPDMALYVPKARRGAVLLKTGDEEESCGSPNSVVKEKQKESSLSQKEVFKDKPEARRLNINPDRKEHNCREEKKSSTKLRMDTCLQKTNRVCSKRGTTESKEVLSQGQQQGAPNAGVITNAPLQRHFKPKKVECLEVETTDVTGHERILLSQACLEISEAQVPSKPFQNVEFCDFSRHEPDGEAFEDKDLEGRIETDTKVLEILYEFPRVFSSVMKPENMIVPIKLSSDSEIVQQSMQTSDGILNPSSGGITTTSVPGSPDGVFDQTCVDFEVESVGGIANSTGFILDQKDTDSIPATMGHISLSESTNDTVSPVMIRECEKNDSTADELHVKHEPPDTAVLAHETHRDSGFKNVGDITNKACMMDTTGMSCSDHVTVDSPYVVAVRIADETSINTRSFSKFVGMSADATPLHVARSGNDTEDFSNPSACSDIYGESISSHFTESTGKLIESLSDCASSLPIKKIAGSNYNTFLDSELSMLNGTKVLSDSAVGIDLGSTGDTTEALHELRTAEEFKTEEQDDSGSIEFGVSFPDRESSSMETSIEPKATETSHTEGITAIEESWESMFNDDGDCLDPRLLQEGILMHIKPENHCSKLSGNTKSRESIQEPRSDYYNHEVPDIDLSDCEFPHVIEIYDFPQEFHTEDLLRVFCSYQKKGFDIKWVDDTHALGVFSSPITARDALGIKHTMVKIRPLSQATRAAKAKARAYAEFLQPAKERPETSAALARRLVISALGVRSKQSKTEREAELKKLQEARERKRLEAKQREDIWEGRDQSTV
UniProt P60484: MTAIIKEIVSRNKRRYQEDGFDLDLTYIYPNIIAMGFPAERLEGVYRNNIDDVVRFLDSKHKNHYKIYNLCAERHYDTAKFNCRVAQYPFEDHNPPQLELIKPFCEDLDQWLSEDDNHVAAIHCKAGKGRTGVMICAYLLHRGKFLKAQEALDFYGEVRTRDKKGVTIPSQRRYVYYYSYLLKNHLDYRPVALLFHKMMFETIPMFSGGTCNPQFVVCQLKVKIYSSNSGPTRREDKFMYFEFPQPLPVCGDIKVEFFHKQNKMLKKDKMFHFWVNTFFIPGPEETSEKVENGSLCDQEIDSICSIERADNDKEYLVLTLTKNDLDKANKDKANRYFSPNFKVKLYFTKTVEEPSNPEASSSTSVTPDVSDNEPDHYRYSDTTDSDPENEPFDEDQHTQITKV
UniProt Q8N0Z8: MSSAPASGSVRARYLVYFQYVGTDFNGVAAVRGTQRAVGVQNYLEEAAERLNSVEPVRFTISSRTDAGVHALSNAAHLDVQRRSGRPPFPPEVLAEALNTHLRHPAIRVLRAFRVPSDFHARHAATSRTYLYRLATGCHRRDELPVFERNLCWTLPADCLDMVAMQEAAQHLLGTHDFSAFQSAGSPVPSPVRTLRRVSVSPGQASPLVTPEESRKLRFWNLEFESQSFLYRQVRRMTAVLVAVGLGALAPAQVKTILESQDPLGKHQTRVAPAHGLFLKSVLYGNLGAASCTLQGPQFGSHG
UniProt Q12913: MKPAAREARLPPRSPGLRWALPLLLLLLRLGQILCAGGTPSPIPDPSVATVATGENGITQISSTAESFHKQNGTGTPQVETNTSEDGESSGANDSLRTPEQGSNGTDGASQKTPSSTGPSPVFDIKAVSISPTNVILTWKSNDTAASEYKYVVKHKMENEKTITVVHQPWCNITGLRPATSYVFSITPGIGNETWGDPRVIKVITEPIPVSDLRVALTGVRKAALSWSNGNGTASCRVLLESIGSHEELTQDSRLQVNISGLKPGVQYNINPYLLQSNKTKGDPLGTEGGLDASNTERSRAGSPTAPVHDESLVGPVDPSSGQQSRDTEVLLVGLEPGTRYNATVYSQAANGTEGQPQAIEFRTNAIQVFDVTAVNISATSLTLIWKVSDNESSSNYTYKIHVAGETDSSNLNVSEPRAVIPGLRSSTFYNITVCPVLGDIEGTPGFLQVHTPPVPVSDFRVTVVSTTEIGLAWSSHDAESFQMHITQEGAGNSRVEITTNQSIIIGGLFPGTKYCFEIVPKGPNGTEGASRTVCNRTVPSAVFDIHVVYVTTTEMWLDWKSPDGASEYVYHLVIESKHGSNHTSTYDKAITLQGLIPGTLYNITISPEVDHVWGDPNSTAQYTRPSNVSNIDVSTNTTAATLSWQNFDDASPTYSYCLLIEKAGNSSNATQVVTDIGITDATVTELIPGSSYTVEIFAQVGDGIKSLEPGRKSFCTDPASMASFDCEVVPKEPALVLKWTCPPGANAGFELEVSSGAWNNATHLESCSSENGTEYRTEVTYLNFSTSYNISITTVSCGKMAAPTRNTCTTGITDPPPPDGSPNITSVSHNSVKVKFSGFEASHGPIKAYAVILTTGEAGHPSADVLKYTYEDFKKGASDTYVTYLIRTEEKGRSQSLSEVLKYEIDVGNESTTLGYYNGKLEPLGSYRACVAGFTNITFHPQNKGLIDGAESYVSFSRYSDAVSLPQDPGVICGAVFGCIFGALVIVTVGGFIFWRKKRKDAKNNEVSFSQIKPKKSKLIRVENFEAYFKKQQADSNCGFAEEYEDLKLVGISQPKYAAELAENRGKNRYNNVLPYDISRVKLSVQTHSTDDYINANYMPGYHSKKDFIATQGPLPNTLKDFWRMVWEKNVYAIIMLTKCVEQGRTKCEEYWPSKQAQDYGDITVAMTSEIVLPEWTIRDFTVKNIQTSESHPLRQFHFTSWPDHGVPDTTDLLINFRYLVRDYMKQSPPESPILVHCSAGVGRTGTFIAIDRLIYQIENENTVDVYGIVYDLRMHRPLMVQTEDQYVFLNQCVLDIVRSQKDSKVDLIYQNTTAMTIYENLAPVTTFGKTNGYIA
UniProt Q9NYI0: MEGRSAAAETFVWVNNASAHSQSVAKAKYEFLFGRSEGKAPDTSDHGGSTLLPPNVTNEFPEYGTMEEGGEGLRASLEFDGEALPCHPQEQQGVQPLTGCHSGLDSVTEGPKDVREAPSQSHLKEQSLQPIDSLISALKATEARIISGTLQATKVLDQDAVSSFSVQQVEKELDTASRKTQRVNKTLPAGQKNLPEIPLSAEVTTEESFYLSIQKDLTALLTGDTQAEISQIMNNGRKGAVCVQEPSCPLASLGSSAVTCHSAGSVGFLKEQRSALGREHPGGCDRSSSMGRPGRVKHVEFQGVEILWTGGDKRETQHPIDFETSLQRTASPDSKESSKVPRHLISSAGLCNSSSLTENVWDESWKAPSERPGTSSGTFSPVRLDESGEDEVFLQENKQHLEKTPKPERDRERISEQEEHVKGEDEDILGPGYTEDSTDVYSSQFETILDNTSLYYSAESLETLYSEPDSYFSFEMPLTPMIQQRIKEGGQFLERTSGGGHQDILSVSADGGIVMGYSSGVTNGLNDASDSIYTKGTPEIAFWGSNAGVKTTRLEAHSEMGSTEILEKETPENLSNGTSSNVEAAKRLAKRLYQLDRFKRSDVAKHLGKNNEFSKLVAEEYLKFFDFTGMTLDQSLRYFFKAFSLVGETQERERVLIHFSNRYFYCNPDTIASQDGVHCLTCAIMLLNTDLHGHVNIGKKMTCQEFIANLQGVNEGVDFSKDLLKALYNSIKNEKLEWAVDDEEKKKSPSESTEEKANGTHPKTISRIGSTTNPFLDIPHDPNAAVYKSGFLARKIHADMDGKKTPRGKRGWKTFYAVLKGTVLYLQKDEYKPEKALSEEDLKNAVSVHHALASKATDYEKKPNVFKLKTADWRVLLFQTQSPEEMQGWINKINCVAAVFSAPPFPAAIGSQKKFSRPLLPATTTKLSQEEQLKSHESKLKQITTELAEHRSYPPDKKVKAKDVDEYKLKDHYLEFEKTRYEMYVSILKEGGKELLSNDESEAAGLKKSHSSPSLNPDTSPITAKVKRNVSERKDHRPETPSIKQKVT
UniProt Q9BQI7: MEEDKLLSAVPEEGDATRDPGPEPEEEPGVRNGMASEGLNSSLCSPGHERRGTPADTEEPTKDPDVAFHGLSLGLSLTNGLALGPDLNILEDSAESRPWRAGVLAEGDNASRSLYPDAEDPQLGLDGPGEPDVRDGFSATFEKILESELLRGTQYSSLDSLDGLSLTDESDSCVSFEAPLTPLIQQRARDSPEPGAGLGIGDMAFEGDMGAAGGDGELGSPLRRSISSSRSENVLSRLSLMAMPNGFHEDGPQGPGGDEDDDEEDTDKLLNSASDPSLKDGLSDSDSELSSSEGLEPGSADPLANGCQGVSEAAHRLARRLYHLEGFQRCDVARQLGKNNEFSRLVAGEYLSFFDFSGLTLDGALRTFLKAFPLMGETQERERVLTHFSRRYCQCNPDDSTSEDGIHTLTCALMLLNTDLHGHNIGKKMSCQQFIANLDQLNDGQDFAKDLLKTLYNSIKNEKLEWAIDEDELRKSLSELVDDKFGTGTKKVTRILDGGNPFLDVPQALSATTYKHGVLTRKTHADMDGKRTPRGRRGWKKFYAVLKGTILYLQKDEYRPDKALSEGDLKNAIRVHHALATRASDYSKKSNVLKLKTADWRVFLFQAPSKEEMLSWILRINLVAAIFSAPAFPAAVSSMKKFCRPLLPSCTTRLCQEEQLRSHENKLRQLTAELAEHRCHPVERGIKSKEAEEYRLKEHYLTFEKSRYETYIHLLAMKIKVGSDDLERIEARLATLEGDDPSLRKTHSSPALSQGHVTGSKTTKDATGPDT
UniProt Q92932: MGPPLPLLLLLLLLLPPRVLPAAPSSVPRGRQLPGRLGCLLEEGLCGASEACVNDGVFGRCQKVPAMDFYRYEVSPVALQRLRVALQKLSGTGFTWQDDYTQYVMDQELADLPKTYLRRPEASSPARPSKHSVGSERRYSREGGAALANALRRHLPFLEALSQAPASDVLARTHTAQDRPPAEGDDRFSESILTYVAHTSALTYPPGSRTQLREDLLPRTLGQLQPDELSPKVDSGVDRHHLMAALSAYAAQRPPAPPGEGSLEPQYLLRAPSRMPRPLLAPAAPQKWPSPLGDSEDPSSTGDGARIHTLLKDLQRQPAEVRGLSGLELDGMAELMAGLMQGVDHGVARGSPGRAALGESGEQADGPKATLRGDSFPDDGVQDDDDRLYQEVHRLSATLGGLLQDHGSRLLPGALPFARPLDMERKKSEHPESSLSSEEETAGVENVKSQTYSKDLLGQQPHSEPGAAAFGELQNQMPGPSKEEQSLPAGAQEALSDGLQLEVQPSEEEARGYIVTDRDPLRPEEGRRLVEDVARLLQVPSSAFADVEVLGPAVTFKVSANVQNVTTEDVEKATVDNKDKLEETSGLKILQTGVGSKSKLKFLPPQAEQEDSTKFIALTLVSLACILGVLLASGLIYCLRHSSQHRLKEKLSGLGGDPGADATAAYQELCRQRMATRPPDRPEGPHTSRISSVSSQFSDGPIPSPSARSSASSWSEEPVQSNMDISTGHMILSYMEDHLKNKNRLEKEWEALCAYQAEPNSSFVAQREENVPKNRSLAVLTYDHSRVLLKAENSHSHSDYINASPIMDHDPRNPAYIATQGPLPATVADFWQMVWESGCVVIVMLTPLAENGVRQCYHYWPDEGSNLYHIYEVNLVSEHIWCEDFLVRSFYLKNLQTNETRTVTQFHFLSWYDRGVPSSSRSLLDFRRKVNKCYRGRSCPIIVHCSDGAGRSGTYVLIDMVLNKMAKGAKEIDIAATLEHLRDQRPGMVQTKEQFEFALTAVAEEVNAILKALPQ

Experiments:
Assay in all cases: log2 fold change, soluble protein after heating vs DMSO (PISA); higher = thermal stabilisation; K562 cells, 10 uM, 30 min; active = over 0.2 and 3.5 SD of the protein, either way, in both replicates (recomputed)
[1] = compound: C/C(=N\NC(=O)C1=CC(=CC=C1)S(=O)(=O)N2CCOCC2)/C3=C(C=CC(=C3)Cl)O
Procedure, shortened: (§1)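 Quantification of soluble protein used TMTpro 16plex LC-MS/MS, with channel sums equalised. Samples were the supernatant after 21,000xg for 90 min of pooled aliquots from K562 cells (2×10^6 cells/mL) treated with 10 μM compound for 30 min, heated for 3 min over 48°C-58°C, and extracted in PBS with 0.5% NP-40 at 4°C. Values, from duplicates, describe thermal stability against control samples on a log2 fold-change scale.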

[2] = compound: C1=CC2=C(C=CC(=C2)/C=C\3/C(=O)NC(=NCC4=CC=CS4)S3)N=C1
Procedure, shortened: as §1

[3] = compound: C1=CC=C(C=C1)C2=NC(=C(N2)C3=CC=NC=C3)C4=CC(=C(C=C4)Cl)O
Procedure, shortened: as §1

[4] = compound: C1=CC=C2C(=C1)C3=NNC4=CC=CC(=C43)C2=O
Procedure, shortened: as §1

[5] = compound: C1COCCN1CCN2C3=CC=CC=C3N=C2NC(=O)C4=CC(=CC=C4)[N+](=O)[O-] [IRAK-1-4 Inhibitor I]
Procedure, shortened: as §1

[6] = compound: CC(=O)c1cnc2ccc(-c3cc(Cl)c(O)c(Cl)c3)nc2c1N[C@H]1CC[C@H](CN(C)C)CC1
Procedure, shortened: as §1

[7] = compound: CC(C)(C)Cn1c(N)nc2ccc(-c3[nH]c(C(C)(C)C)nc3-c3ccc(F)cc3)nc21 [ralimetinib]
Procedure, shortened: as §1

[8] = compound: CC(C)C[C@@H](C=O)NC(=O)[C@H](CC(C)C)NC(=O)[C@H](CC(C)C)NC(=O)OCc1ccccc1
Procedure, shortened: as §1

[9] = compound: CC(C)N(C[C@H]1O[C@@H](n2cnc3c(N)ncnc32)[C@H](O)[C@@H]1O)[C@H]1C[C@@H](CCc2nc3cc(C(C)(C)C)ccc3[nH]2)C1 [pinometostat]
Procedure, shortened: as §1

[10] = compound: C1=CC2=NC=CN=C2C=C1/C=C/3\C(=O)NC(=O)S3
Procedure, shortened: as §1

[11] = compound: C=CC(=O)N1CCC[C@@H](n2nc(-c3ccc(Oc4ccccc4)cc3)c3c(N)ncnc32)C1 [ibrutinib]
Procedure, shortened: as §1

[12] = compound: C1CCN(C1)C(=O)NC2=CC=CC(=C2)NC3=NC=C(C(=N3)NCCC4=CN=CN4)Br
Procedure, shortened: as §1

[13] = compound: C1CN(CCC1(CC2=CC=C(C=C2)Cl)N)C3=NC=NC4=C3C=CN4
Procedure, shortened: as §1

[14] = compound: CC1=C(C(CC(=O)N1)C2=CC=C(C=C2)C(F)(F)F)C(=O)NC3=C(C=C4C(=C3)C=NN4)F
Procedure, shortened: as §1

[15] = compound: CC1=C(C2=C(C=C1)C(=O)C3=CC=CC=C3N2CCCN)C
Procedure, shortened: as §1

[16] = compound: C#Cc1cccc(Nc2ncnc3cc(OCCOC)c(OCCOC)cc23)c1 [erlotinib]
Procedure, shortened: as §1

[17] = compound: C1=CC(=CC=C1C2=NC3=C(N2)C=C(C=C3)C(=O)N)OC4=CC=C(C=C4)Cl
Procedure, shortened: as §1

[18] = compound: CC(C)C1=C2N=C(C=C(N2N=C1)NCC3=CC=CC=C3)NCCCCCCN
Procedure, shortened: as §1

[19] = compound: C1=CC(=C(C=C1Cl)C2=NC3=NC=CN=C3C(=N2)NC4=CC=NC=C4)F
Procedure, shortened: as §1

[20] = compound: CC(C)(O)CC(=O)NCCn1ccc2ncnc(Nc3ccc(Oc4cccc(C(F)(F)F)c4)c(Cl)c3)c21
Procedure, shortened: as §1

PTRH1 (UniProt Q86Y79)
log2 fold change [1]: inactive: -0.033
log2 fold change [2]: inactive: 0.013
log2 fold change [3]: inactive: 0.118
log2 fold change [4]: inactive: -0.016
log2 fold change [5]: inactive: -0.055
log2 fold change [6]: inactive: -0.145
log2 fold change [7]: inactive: 0.17
log2 fold change [8]: inactive: -0.037
log2 fold change [9]: inactive: 0.037

PTP4A3 (UniProt O75365)
log2 fold change [10]: inactive: -0.041
log2 fold change [11]: inactive: 0.079

PSIP1 (UniProt V9GYT7)
log2 fold change [3]: inactive: 0.052
log2 fold change [12]: inactive: 0.024
log2 fold change [13]: inactive: -0.054
log2 fold change [5]: inactive: 0.182
log2 fold change [7]: inactive: 0.118
log2 fold change [8]: inactive: 0.036
log2 fold change [9]: inactive: 0.016
log2 fold change [14]: inactive: 0.042
log2 fold change [15]: inactive: 0.137

PSEN2 (UniProt P49810)
log2 fold change [16]: inactive: 0.002
log2 fold change [1]: inactive: 0.219
log2 fold change [17]: inactive: 0.119
log2 fold change [2]: inactive: -0.053
log2 fold change [3]: inactive: -0.108
log2 fold change [4]: inactive: -0.024
log2 fold change [6]: inactive: 0.065
log2 fold change [7]: inactive: -0.113
log2 fold change [18]: inactive: -0.147
log2 fold change [8]: inactive: 0.047

PTBP2 isoform 3 (UniProt Q9UKA9)
log2 fold change [16]: inactive: -0.045
log2 fold change [17]: inactive: 0.009
log2 fold change [5]: inactive: 0.035
log2 fold change [18]: inactive: 0.02
log2 fold change [9]: inactive: 0.101

PSMC3 (UniProt E9PLG2)
log2 fold change [19]: inactive: -0.437
log2 fold change [10]: inactive: 0.151
log2 fold change [12]: inactive: 0.27
log2 fold change [13]: inactive: -0.045
log2 fold change [5]: inactive: -0.064
log2 fold change [11]: inactive: -0.051
log2 fold change [20]: inactive: 0.167
log2 fold change [9]: inactive: -0.1
log2 fold change [15]: inactive: -0.155

R3HCC1L (UniProt Q7Z5L2)
log2 fold change [16]: inactive: -0.159
log2 fold change [1]: inactive: -0.1
log2 fold change [17]: inactive: 0.03
log2 fold change [2]: inactive: -0.016
log2 fold change [4]: inactive: 0.11
log2 fold change [12]: inactive: 0.401
log2 fold change [13]: inactive: -0.078
log2 fold change [6]: inactive: 0.066
log2 fold change [18]: inactive: -0.046
log2 fold change [14]: inactive: -0.291
log2 fold change [15]: inactive: 0.116

PTPN7 isoform 3 (UniProt P35236)
log2 fold change [16]: inactive: 0.088
log2 fold change [17]: inactive: -0.208
log2 fold change [3]: inactive: 0.061
log2 fold change [7]: inactive: 0.375
log2 fold change [18]: inactive: -0.261
log2 fold change [8]: inactive: 0.274

PSMA3 (UniProt H0YJ03)
log2 fold change [1]: active: -0.698
log2 fold change [2]: inactive: 0.095
log2 fold change [3]: inactive: -0.065
log2 fold change [4]: inactive: -0.006
log2 fold change [12]: inactive: -0.027
log2 fold change [13]: inactive: 0.2
log2 fold change [5]: inactive: 0.023
log2 fold change [6]: inactive: 0.052
log2 fold change [7]: inactive: 0.14
log2 fold change [8]: inactive: 0.067
log2 fold change [9]: inactive: 0.061
log2 fold change [15]: inactive: 0.046

PUF60 isoform 2 (UniProt Q9UHX1)
log2 fold change [1]: inactive: 0.242
log2 fold change [2]: inactive: -0.242
log2 fold change [10]: inactive: 0.086
log2 fold change [3]: inactive: 0.05
log2 fold change [4]: inactive: 0.046
log2 fold change [12]: inactive: -0.148
log2 fold change [13]: inactive: -0.148
log2 fold change [11]: inactive: 0.035
log2 fold change [6]: inactive: -0.329
log2 fold change [7]: inactive: 0.25
log2 fold change [8]: inactive: -0.203
log2 fold change [15]: inactive: -0.052

PTEN isoform 2 (UniProt P60484)
log2 fold change [16]: inactive: 0.264
log2 fold change [17]: inactive: 0.061
log2 fold change [3]: inactive: 0.178
log2 fold change [5]: inactive: -0.227
log2 fold change [7]: inactive: 0.062
log2 fold change [18]: active: -0.629
log2 fold change [8]: inactive: 0.083
log2 fold change [9]: inactive: -0.006

PUSL1 (UniProt Q8N0Z8)
log2 fold change [16]: inactive: 0.132
log2 fold change [19]: inactive: -0.317
log2 fold change [17]: inactive: -0.11
log2 fold change [3]: inactive: 0.058
log2 fold change [12]: inactive: 0.025
log2 fold change [13]: inactive: -0.089
log2 fold change [7]: inactive: 0.242
log2 fold change [20]: inactive: 0.077
log2 fold change [18]: inactive: 0.132
log2 fold change [8]: inactive: 0.174
log2 fold change [15]: inactive: -0.213

PTPRJ (UniProt Q12913)
log2 fold change [19]: inactive: -0.152
log2 fold change [20]: inactive: -0.129

PSEN1 (UniProt P49768)
log2 fold change [19]: inactive: 0.023
log2 fold change [10]: inactive: 0.119
log2 fold change [3]: inactive: -0.021
log2 fold change [12]: inactive: 0.051
log2 fold change [13]: inactive: 0.003
log2 fold change [5]: inactive: 0.014
log2 fold change [11]: inactive: -0.076
log2 fold change [7]: inactive: -0.039
log2 fold change [20]: inactive: -0.079
log2 fold change [8]: inactive: -0.012
log2 fold change [9]: inactive: -0.005
log2 fold change [14]: inactive: -0.033
log2 fold change [15]: inactive: 0.109

PSD3 (UniProt Q9NYI0)
log2 fold change [1]: inactive: -0.022
log2 fold change [2]: inactive: 0.1
log2 fold change [3]: inactive: -0.001
log2 fold change [4]: inactive: 0.018
log2 fold change [5]: inactive: 0.014
log2 fold change [6]: inactive: -0.024
log2 fold change [7]: inactive: -0.026
log2 fold change [8]: inactive: -0.055
log2 fold change [9]: inactive: -0.037

PSD2 (UniProt Q9BQI7)
log2 fold change [1]: inactive: -0.664
log2 fold change [19]: inactive: -0.153
log2 fold change [2]: inactive: -0.086
log2 fold change [3]: inactive: -0.412
log2 fold change [4]: inactive: -0.089
log2 fold change [6]: inactive: 0.045
log2 fold change [7]: inactive: -0.267
log2 fold change [20]: inactive: 0.079
log2 fold change [8]: inactive: 0.145
log2 fold change [14]: inactive: 0.042

R3HDM1 isoform 2 (UniProt Q15032)
log2 fold change [16]: inactive: -0.021
log2 fold change [1]: inactive: 0.133
log2 fold change [17]: inactive: -0.058
log2 fold change [2]: inactive: 0.233
log2 fold change [10]: inactive: 0.031
log2 fold change [3]: inactive: -0.158
log2 fold change [4]: inactive: 0.044
log2 fold change [12]: inactive: 0.013
log2 fold change [13]: inactive: 0.162
log2 fold change [5]: inactive: 0.053
log2 fold change [11]: inactive: -0.084
log2 fold change [6]: inactive: -0.184
log2 fold change [7]: inactive: 0.028
log2 fold change [18]: inactive: -0.024
log2 fold change [8]: inactive: 0.06
log2 fold change [9]: inactive: 0.005
log2 fold change [14]: inactive: -0.029
log2 fold change [15]: inactive: 0.112

PSMA3 (UniProt G3V4X5)
log2 fold change [10]: inactive: 0.051
log2 fold change [3]: inactive: 0.348
log2 fold change [5]: inactive: -0.451
log2 fold change [11]: inactive: -0.065
log2 fold change [7]: inactive: -0.114
log2 fold change [8]: active: 0.733
log2 fold change [9]: inactive: -0.001

PSMD4 (UniProt Q5VWC4)
log2 fold change [1]: inactive: -0.07
log2 fold change [19]: inactive: 0.042
log2 fold change [2]: inactive: -0.07
log2 fold change [10]: inactive: 0.045
log2 fold change [4]: inactive: -0.044
log2 fold change [5]: inactive: -0.058
log2 fold change [11]: inactive: -0.101
log2 fold change [6]: inactive: 0.048
log2 fold change [20]: inactive: -0.012
log2 fold change [9]: inactive: 0.022
log2 fold change [14]: inactive: -0.084

PTPRN2 isoform 3 (UniProt Q92932)
log2 fold change [1]: inactive: -0.075
log2 fold change [19]: inactive: -0.017
log2 fold change [2]: inactive: 0.339
log2 fold change [10]: inactive: -0.23
log2 fold change [4]: inactive: 0.027
log2 fold change [5]: inactive: -0.108
log2 fold change [11]: inactive: 0.047
log2 fold change [6]: inactive: -0.455
log2 fold change [20]: inactive: 0.085
log2 fold change [9]: inactive: 0.114
log2 fold change [14]: inactive: 0.178
